Laboratory results from the supplement of paper PMC10849652.
The list shows a part of the results. Residues, ends and D or L forms follow the SMILES beside them. *: point of attachment. Cbz = O=C(OCc1ccccc1)*

Chains of the proteins cited; added tags and fusions are not shown. Lines headed by an entry give the natural chain unless they say otherwise; changes in a name come on top.
UniProt O75832: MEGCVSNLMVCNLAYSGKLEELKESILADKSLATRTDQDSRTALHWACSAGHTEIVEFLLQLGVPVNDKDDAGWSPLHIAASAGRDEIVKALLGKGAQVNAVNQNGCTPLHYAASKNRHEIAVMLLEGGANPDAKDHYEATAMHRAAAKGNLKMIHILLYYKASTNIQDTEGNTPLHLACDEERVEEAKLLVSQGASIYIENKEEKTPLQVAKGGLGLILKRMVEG
UniProt P25789: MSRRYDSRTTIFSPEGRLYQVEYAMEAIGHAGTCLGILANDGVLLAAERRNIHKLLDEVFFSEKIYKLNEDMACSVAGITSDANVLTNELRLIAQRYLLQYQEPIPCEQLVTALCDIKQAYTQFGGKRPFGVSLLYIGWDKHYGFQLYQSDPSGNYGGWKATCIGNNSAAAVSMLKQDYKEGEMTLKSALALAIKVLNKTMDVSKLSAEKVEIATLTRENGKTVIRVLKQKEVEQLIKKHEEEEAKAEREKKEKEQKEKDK
UniProt Q9H974: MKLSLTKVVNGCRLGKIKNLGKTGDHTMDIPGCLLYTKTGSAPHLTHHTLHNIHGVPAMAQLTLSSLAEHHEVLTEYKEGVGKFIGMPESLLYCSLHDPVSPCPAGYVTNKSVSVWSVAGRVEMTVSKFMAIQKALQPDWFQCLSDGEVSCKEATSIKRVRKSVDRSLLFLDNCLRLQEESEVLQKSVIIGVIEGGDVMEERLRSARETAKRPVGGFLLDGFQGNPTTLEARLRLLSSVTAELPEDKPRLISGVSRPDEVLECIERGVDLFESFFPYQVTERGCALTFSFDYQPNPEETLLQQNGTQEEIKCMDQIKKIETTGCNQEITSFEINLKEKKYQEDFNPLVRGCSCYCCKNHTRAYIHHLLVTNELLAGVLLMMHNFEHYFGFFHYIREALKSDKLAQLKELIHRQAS
UniProt O00233: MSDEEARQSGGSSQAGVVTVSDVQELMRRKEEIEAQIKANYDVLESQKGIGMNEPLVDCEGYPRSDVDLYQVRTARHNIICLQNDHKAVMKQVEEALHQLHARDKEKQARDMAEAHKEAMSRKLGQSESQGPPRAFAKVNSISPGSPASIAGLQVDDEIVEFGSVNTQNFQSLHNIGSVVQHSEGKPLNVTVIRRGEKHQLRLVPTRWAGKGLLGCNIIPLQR
UniProt Q15257: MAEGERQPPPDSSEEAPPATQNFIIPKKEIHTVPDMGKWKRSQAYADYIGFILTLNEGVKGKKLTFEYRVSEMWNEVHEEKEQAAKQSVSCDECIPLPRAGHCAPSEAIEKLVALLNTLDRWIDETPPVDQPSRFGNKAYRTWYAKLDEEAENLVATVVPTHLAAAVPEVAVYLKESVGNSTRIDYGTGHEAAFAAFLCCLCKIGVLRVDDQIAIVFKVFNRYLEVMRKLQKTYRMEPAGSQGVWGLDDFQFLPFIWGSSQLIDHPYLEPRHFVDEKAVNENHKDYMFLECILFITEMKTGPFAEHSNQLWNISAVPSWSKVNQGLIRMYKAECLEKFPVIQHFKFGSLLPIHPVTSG
UniProt Q8WU10: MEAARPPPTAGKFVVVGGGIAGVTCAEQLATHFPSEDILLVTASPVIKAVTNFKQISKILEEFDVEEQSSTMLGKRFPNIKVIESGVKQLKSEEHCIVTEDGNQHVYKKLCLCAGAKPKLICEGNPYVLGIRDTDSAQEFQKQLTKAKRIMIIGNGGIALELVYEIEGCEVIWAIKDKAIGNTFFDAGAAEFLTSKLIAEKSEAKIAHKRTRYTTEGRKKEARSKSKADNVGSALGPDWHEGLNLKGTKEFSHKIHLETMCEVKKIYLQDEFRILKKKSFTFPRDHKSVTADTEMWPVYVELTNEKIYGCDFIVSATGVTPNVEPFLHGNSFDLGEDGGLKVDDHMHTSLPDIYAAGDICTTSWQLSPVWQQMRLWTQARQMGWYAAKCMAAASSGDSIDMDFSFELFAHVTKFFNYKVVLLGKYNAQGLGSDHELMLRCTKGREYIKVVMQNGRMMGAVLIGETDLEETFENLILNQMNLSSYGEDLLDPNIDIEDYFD
UniProt Q9Y606: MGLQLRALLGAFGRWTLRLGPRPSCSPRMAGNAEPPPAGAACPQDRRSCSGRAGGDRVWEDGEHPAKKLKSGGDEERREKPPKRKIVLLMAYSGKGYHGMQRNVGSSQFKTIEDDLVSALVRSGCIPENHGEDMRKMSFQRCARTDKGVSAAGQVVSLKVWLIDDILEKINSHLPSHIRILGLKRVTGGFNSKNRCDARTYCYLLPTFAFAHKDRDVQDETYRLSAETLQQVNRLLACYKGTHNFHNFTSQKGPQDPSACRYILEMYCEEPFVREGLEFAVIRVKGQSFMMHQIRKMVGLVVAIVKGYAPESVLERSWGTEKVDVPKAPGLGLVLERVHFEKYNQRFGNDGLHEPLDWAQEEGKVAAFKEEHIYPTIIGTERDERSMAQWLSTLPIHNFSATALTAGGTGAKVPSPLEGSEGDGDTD
UniProt Q8N8N7: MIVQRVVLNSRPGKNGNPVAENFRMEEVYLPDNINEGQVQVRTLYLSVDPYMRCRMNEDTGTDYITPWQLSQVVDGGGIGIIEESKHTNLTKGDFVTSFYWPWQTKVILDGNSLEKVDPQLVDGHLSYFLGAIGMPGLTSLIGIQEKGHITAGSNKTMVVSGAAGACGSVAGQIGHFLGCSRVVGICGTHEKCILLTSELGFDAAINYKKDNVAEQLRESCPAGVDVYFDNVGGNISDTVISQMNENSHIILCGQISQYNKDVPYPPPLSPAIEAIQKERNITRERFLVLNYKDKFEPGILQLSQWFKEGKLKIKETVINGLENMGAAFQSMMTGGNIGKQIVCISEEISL
UniProt O00232: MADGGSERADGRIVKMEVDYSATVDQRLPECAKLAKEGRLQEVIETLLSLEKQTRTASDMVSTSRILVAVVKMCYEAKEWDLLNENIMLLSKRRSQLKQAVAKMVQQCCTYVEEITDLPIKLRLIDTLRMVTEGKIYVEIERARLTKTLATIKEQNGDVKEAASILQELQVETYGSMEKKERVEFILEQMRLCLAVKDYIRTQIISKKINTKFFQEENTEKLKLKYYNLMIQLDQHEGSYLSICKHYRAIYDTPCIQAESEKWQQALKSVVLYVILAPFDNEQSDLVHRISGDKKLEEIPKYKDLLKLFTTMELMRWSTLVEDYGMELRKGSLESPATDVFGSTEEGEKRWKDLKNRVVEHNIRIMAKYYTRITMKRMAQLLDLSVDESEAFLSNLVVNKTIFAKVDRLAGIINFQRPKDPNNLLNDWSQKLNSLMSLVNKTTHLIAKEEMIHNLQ
UniProt O95997: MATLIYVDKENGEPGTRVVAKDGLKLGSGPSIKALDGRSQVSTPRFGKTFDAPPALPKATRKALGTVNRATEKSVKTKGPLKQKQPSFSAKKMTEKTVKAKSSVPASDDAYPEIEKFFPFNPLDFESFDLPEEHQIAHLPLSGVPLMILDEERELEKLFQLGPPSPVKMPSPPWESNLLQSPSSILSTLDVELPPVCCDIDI
UniProt P51665: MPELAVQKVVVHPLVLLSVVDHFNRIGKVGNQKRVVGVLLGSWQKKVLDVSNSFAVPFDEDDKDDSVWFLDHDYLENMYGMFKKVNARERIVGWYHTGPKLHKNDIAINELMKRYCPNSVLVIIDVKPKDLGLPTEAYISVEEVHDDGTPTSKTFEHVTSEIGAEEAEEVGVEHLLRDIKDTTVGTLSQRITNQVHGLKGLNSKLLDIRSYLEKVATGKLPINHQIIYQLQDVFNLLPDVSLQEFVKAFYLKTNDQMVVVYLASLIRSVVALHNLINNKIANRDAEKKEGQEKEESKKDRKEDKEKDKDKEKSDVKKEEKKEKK
UniProt P06737: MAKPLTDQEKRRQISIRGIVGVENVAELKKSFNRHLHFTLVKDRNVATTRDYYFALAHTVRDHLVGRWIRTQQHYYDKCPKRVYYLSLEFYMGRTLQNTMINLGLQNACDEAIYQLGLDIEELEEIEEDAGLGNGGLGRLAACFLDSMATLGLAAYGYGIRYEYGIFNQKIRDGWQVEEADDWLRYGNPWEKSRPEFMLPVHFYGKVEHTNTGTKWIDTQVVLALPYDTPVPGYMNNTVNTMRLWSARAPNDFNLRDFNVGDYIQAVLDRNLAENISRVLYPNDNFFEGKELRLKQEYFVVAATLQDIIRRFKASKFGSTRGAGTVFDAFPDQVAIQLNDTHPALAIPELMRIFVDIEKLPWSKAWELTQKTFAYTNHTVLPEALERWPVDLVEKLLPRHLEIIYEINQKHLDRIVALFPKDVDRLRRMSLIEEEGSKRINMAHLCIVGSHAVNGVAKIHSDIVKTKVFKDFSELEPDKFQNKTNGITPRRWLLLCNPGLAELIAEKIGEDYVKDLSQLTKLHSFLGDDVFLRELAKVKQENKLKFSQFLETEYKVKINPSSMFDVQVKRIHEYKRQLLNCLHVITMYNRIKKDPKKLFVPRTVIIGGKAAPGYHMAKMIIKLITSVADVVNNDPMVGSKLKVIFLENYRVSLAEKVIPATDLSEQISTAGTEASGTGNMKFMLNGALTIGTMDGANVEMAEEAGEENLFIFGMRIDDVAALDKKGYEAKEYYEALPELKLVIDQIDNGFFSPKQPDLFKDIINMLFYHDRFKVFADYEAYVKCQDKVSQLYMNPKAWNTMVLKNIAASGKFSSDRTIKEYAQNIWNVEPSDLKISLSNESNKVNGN
UniProt P17980, whole entry, looked up: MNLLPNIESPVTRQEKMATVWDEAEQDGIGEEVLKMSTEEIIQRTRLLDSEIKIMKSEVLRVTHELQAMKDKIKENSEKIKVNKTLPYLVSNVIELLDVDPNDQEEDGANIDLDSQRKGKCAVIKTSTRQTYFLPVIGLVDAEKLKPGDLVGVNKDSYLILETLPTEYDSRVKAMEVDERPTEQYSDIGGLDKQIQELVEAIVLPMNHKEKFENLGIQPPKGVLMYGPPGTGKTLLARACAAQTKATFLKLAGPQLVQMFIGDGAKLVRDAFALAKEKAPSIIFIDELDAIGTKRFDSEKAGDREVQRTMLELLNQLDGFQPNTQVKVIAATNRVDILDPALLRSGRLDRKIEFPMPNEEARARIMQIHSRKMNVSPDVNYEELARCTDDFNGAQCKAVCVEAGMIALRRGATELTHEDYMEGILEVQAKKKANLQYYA
UniProt P62333, whole entry, looked up: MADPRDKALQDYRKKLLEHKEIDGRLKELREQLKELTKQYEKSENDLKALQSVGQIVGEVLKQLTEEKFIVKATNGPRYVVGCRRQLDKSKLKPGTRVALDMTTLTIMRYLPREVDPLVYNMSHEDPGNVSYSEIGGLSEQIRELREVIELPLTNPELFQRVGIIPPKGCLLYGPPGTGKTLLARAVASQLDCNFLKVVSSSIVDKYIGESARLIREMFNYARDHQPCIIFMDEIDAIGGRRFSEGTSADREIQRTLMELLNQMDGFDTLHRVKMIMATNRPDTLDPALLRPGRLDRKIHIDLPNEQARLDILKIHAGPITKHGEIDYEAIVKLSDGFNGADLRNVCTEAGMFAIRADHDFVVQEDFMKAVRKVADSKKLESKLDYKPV
UniProt P60900, whole entry, looked up: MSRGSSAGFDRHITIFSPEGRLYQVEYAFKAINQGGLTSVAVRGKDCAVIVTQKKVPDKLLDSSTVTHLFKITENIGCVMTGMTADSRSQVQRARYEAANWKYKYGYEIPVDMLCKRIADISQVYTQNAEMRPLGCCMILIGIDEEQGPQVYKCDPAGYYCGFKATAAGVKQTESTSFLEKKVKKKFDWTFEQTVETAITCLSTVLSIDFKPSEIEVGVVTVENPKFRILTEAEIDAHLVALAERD
UniProt Q6GMV3: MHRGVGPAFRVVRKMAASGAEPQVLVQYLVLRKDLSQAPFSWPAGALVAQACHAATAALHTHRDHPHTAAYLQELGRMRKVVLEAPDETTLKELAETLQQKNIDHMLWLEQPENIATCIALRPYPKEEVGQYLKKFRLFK

Columns and labels:
Test in all cases: log2 fold change, soluble protein after heating vs DMSO (PISA); higher = thermal stabilisation; K562 cells, 10 uM, 30 min; active = over 0.2 and 3.5 SD of the protein, either way, in both replicates (recomputed)
erlotinib = compound: C#Cc1cccc(Nc2ncnc3cc(OCCOC)c(OCCOC)cc23)c1 [erlotinib]
How it was run: (§1)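 For each measurement, 10 μM compound was applied for 30 min to K562 cells at 2×10^6 cells/mL. Aliquots were heated for 3 min across 48°C-58°C, pooled, and extracted in PBS with 0.5% NP-40 at 4°C; the supernatant after 21,000xg for 90 min was soluble protein. This was quantified by TMTpro 16plex LC-MS/MS with channel sums equalised, and thermal stability was reported relative to control samples from duplicates, on a log2 fold-change scale.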

[1] = compound: C/C(=N\NC(=O)C1=CC(=CC=C1)S(=O)(=O)N2CCOCC2)/C3=C(C=CC(=C3)Cl)O
How it was run: as §1

[2] = compound: C1=CC(=C(C=C1Cl)C2=NC3=NC=CN=C3C(=N2)NC4=CC=NC=C4)F
How it was run: as §1

[3] = compound: C1=CC(=CC=C1C2=NC3=C(N2)C=C(C=C3)C(=O)N)OC4=CC=C(C=C4)Cl
How it was run: as §1

[4] = compound: C1=CC2=C(C=CC(=C2)/C=C\3/C(=O)NC(=NCC4=CC=CS4)S3)N=C1
How it was run: as §1

[5] = compound: C1=CC2=NC=CN=C2C=C1/C=C/3\C(=O)NC(=O)S3
How it was run: as §1

[6] = compound: C1=CC=C(C=C1)C2=NC(=C(N2)C3=CC=NC=C3)C4=CC(=C(C=C4)Cl)O
How it was run: as §1

[7] = compound: C1=CC=C2C(=C1)C3=NNC4=CC=CC(=C43)C2=O
How it was run: as §1

[8] = compound: C1CCN(C1)C(=O)NC2=CC=CC(=C2)NC3=NC=C(C(=N3)NCCC4=CN=CN4)Br
How it was run: as §1

[9] = compound: C1CN(CCC1(CC2=CC=C(C=C2)Cl)N)C3=NC=NC4=C3C=CN4
How it was run: as §1

IRAK-1-4 Inhibitor I = compound: C1COCCN1CCN2C3=CC=CC=C3N=C2NC(=O)C4=CC(=CC=C4)[N+](=O)[O-] [IRAK-1-4 Inhibitor I]
How it was run: as §1

ibrutinib = compound: C=CC(=O)N1CCC[C@@H](n2nc(-c3ccc(Oc4ccccc4)cc3)c3c(N)ncnc32)C1 [ibrutinib]
How it was run: as §1

[10] = compound: CC(=O)c1cnc2ccc(-c3cc(Cl)c(O)c(Cl)c3)nc2c1N[C@H]1CC[C@H](CN(C)C)CC1
How it was run: as §1

ralimetinib = compound: CC(C)(C)Cn1c(N)nc2ccc(-c3[nH]c(C(C)(C)C)nc3-c3ccc(F)cc3)nc21 [ralimetinib]
How it was run: as §1

[11] = compound: CC(C)(O)CC(=O)NCCn1ccc2ncnc(Nc3ccc(Oc4cccc(C(F)(F)F)c4)c(Cl)c3)c21
How it was run: as §1

[12] = compound: CC(C)C1=C2N=C(C=C(N2N=C1)NCC3=CC=CC=C3)NCCCCCCN
How it was run: as §1

[13] = compound: CC(C)C[C@@H](C=O)NC(=O)[C@H](CC(C)C)NC(=O)[C@H](CC(C)C)NC(=O)OCc1ccccc1
How it was run: as §1

pinometostat = compound: CC(C)N(C[C@H]1O[C@@H](n2cnc3c(N)ncnc32)[C@H](O)[C@@H]1O)[C@H]1C[C@@H](CCc2nc3cc(C(C)(C)C)ccc3[nH]2)C1 [pinometostat]
How it was run: as §1

[14] = compound: CC1=C(C(CC(=O)N1)C2=CC=C(C=C2)C(F)(F)F)C(=O)NC3=C(C=C4C(=C3)C=NN4)F
How it was run: as §1

[15] = compound: CC1=C(C2=C(C=C1)C(=O)C3=CC=CC=C3N2CCCN)C
How it was run: as §1

Measured: log2 fold change

PSMD10 (UniProt O75832)
inactive: erlotinib 0.033 | [1] 0.091 | [2] 0.094 | [3] -0.088 | [4] 0.059 | [5] 0.014 | [6] 0.023 | [7] 0.023 | [8] -0.014 | [9] -0.018 | IRAK-1-4 Inhibitor I -0.007 | ibrutinib -0.02 | [10] 0.002 | ralimetinib 0.005 | [11] -0.065 | [12] 0 | [13] 0.012 | pinometostat -0.059 | [14] -0.034 | [15] 0.047

PSMA4 (UniProt P25789)
inactive: erlotinib -0.08 | [1] -0.04 | [2] 0.077 | [3] 0.003 | [4] -0.052 | [5] 0.055 | [6] -0.02 | [7] 0.02 | [8] 0.001 | [9] 0.023 | IRAK-1-4 Inhibitor I -0.015 | ibrutinib -0.042 | [10] 0.08 | ralimetinib 0.014 | [11] 0.017 | [12] 0.098 | [13] -0.108 | pinometostat -0.007 | [14] 0.038 | [15] -0.012

QTRT2 isoform 4 (UniProt Q9H974)
inactive: erlotinib 0.014 | [1] -0.011 | [2] 0.053 | [3] 0.027 | [4] 0.024 | [5] -0.04 | [6] -0.014 | [7] 0.05 | [8] 0.016 | [9] 0.036 | IRAK-1-4 Inhibitor I 0.07 | ibrutinib 0.034 | [10] -0.001 | ralimetinib -0.007 | [11] 0.001 | [12] 0.004 | [13] -0.002 | pinometostat -0.002 | [14] -0.003 | [15] -0.04

PSMD9 (UniProt O00233)
inactive: erlotinib 0.015 | [1] 0.015 | [2] 0.022 | [3] -0.012 | [4] -0.068 | [5] 0.041 | [6] 0.006 | [7] 0.008 | [8] 0.009 | [9] 0.03 | IRAK-1-4 Inhibitor I 0.033 | ibrutinib -0.005 | [10] -0.003 | ralimetinib -0.029 | [11] 0.003 | [12] 0.069 | [13] -0.015 | pinometostat -0.039 | [15] -0.004

PTPA (UniProt Q15257)
inactive: erlotinib 0.022 | [1] 0.034 | [2] 0.069 | [3] 0.127 | [4] -0.01 | [5] 0.01 | [6] 0.022 | [7] 0.029 | [8] -0.037 | [9] -0.013 | IRAK-1-4 Inhibitor I 0.016 | ibrutinib -0.027 | [10] -0.003 | ralimetinib -0.02 | [11] -0.022 | [12] -0.01 | [13] -0.028 | pinometostat -0.044 | [15] -0.011

Fetched one by one from the list above, 2 records:
PTPA (UniProt Q15257)
inactive: erlotinib 0.022 | [1] 0.034 | [2] 0.069 | [3] 0.127 | [4] -0.01 | [5] 0.01 | [6] 0.022 | [7] 0.029 | [8] -0.037 | [9] -0.013 | IRAK-1-4 Inhibitor I 0.016 | ibrutinib -0.027 | [10] -0.003 | ralimetinib -0.02 | [11] -0.022 | [12] -0.01 | [13] -0.028 | pinometostat -0.044 | [15] -0.011

PSMD10 (UniProt O75832)
inactive: erlotinib 0.033 | [1] 0.091 | [2] 0.094 | [3] -0.088 | [4] 0.059 | [5] 0.014 | [6] 0.023 | [7] 0.023 | [8] -0.014 | [9] -0.018 | IRAK-1-4 Inhibitor I -0.007 | ibrutinib -0.02 | [10] 0.002 | ralimetinib 0.005 | [11] -0.065 | [12] 0 | [13] 0.012 | pinometostat -0.059 | [14] -0.034 | [15] 0.047

Following part.

PYROXD1 (UniProt Q8WU10)
inactive: erlotinib 0.073 | [1] 0.139 | [2] -0.088 | [3] -0.093 | [4] 0.185 | [5] 0.084 | [6] 0.457 | [7] 0.003 | [8] -0.012 | [9] -0.016 | IRAK-1-4 Inhibitor I 0.118 | ibrutinib -0.079 | [10] -0.082 | ralimetinib 0.025 | [11] 0.023 | [12] -0.035 | [13] -0.009 | pinometostat 0.019 | [14] 0.002 | [15] 0.017

PUS1 (UniProt Q9Y606)
inactive: erlotinib 0.017 | [1] 0.222 | [2] -0.055 | [3] 0.034 | [4] -0.141 | [5] -0.165 | [6] -0.067 | [7] -0.132 | [8] 0.028 | [9] -0.08 | IRAK-1-4 Inhibitor I -0.034 | ibrutinib 0.108 | [10] 0.025 | ralimetinib 0.021 | [11] 0 | [12] -0.236 | [13] 0.094 | pinometostat 0.129 | [15] -0.1

PTGR2 (UniProt Q8N8N7)
inactive: erlotinib -0.015 | [1] -0.027 | [2] 0.016 | [3] -0.023 | [4] 0.365 | [5] -0.01 | [6] 0.062 | [7] 0.056 | [8] -0.023 | [9] 0.131 | IRAK-1-4 Inhibitor I 0 | ibrutinib 0.321 | [10] -0.328 | ralimetinib -0.016 | [11] -0.042 | [12] 0.121 | [13] 0.001 | pinometostat 0.074 | [15] 0.011

PSMD12 (UniProt O00232)
inactive: erlotinib -0.064 | [1] 0 | [2] -0.017 | [3] -0.003 | [4] -0.023 | [5] -0.016 | [6] 0.009 | [7] 0.066 | [8] -0.042 | [9] -0.049 | IRAK-1-4 Inhibitor I -0.055 | ibrutinib -0.022 | [10] 0.03 | ralimetinib 0.004 | [11] -0.01 | [12] 0 | pinometostat 0.03 | [15] 0.015
active: [13] -0.251

PTTG1 (UniProt O95997)
inactive: erlotinib -0.024 | [1] 0.094 | [2] -0.024 | [3] 0.029 | [4] -0.043 | [5] -0.005 | [6] -0.205 | [7] -0.045 | [8] -0.024 | [9] -0.093 | IRAK-1-4 Inhibitor I -0.026 | ibrutinib -0.017 | [10] 0.057 | ralimetinib -0.069 | [11] -0.03 | [12] -0.002 | pinometostat 0.036 | [15] -0.084
active: [13] 0.393

PSMD7 (UniProt P51665)
inactive: erlotinib -0.074 | [1] -0.1 | [2] -0.045 | [3] -0.023 | [4] -0.015 | [5] -0.072 | [6] 0.02 | [7] -0.009 | [8] 0.044 | [9] -0.01 | IRAK-1-4 Inhibitor I 0.055 | ibrutinib -0.006 | [10] 0.028 | ralimetinib 0.01 | [11] 0.057 | [12] 0.019 | pinometostat 0.066 | [15] -0.029
active: [13] -0.216

PYGL (UniProt P06737)
inactive: erlotinib -0.012 | [1] -0.008 | [2] 0.001 | [3] 0.037 | [4] 0.047 | [5] -0.007 | [6] -0.02 | [7] 0.008 | [8] -0.004 | [9] 0.08 | IRAK-1-4 Inhibitor I 0.004 | ibrutinib 0.033 | [10] -0.143 | ralimetinib -0.038 | [11] 0.055 | [12] 0.068 | [13] -0.031 | pinometostat -0.007 | [15] 0.021

PSMC3 (UniProt P17980)
inactive: erlotinib -0.039 | [1] -0.107 | [2] -0.037 | [3] 0.008 | [4] -0.059 | [5] -0.025 | [6] -0.002 | [7] -0.001 | [8] 0.026 | [9] -0.004 | IRAK-1-4 Inhibitor I -0.041 | ibrutinib -0.021 | [10] 0.023 | ralimetinib 0.016 | [11] 0.007 | [12] 0.048 | [13] -0.213 | pinometostat 0.025 | [15] 0.023

PSMC6 (UniProt P62333)
inactive: erlotinib -0.06 | [1] -0.074 | [2] -0.006 | [3] 0.011 | [4] -0.031 | [5] -0.037 | [6] 0.015 | [7] 0.014 | [8] 0.034 | [9] -0.008 | IRAK-1-4 Inhibitor I -0.026 | ibrutinib 0 | [10] 0.044 | ralimetinib 0.019 | [11] 0.093 | [12] 0.077 | [13] -0.206 | pinometostat 0.01 | [15] -0.01

PSMA6 (UniProt P60900)
inactive: erlotinib -0.091 | [1] -0.025 | [2] 0.01 | [3] 0.007 | [4] -0.004 | [5] -0.008 | [6] 0.037 | [7] -0.028 | [8] 0.028 | [9] 0.024 | IRAK-1-4 Inhibitor I 0.003 | ibrutinib 0.012 | [10] 0.079 | ralimetinib -0.002 | [11] 0.029 | [12] 0.071 | [13] -0.134 | pinometostat -0.013 | [14] 0.053 | [15] -0.015

PTRHD1 (UniProt Q6GMV3)
inactive: erlotinib -0.002 | [1] 0.005 | [3] 0.046 | [4] 0.134 | [5] 0.045 | [6] 0.121 | [7] -0.032 | [8] -0.017 | [9] -0.012 | IRAK-1-4 Inhibitor I 0.155 | ibrutinib 0.004 | [10] -0.048 | ralimetinib -0.049 | [11] -0.022 | [12] 0.139 | [13] -0.01 | pinometostat 0.003 | [15] 0.184
active: [2] 0.37
